Consider two molecules from paper PMC13343842, “The accessory protein CvnF8 modulates histidine kinase activity in an actinobacterial G protein system in Streptomyces coelicolor” (mBio, 2026).

By UniProt entry, the sequences of proteins in these tests, tags left out. Where a name states a change or a piece, a line headed by the entry shows the natural chain unless it says otherwise.
UniProt Q9KYK2: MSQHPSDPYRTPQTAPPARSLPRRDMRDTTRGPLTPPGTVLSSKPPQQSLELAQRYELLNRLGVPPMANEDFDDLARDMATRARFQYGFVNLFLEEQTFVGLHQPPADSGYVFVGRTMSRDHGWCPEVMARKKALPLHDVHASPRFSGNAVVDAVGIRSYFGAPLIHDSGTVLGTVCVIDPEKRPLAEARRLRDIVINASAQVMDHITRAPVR

No constants are given. Whether binding was seen depends on the method and setting. In cells and extracts the contact can be indirect. A result given as binding can be weak or reduced; the word gives no strength. Where a sequence is shown, tags or fusion partners need not be part of it.

Experiment [1] concerns the target T1, truncated His6-tagged CvnA8 (residues 81-505) (Streptomyces coelicolor) (UniProt Q9KYJ8).
T1 sequence: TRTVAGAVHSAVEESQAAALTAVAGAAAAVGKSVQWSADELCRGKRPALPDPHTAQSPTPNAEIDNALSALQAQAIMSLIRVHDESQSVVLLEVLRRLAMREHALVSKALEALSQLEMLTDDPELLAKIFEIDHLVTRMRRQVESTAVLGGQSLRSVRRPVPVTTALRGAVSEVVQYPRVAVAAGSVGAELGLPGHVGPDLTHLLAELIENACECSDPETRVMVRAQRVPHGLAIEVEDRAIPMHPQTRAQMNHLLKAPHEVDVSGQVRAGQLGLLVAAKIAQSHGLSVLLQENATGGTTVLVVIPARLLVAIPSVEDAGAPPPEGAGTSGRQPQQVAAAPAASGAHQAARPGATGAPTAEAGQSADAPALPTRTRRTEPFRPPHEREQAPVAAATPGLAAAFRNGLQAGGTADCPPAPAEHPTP
The experiment can be described thus: pull-down; lysate of E. coli co-expressing both proteins incubated with Ni-NTA resin 1 h at 4°C (His6-CvnA8 81-505 as bait); 50 mM Tris-HCl pH 8.0, 300 mM NaCl, 5 mM MgCl2; washes with 50 mM imidazole, elution with 300 mM imidazole; anti-His and anti-Strep western blots; n = 3.

Experiment [2] has as its target full-length Strep-tagged CvnF8 (Streptomyces coelicolor) (UniProt Q9KYK2). The experiment can be described thus: pull-down; lysate of E. coli co-expressing both proteins incubated with Strep-Tactin Sepharose beads 1 h at 4°C (Strep-CvnF8 as bait); 50 mM Tris-HCl pH 8.0, 300 mM NaCl, 5 mM MgCl2; elution with 50 mM D-desthiobiotin; anti-His and anti-Strep western blots; n = 3. (In general: Immunoblotting shows a protein as a band on a membrane.)

For the molecule “full-length Strep-tagged CvnF8 (from UniProt Q9KYK2)”, in experiment [1], the binding result is on record as “binds”.

B1: truncated His6-tagged CvnA8 (residues 81-505) (domain or fragment, UniProt Q9KYJ8 81-505)
chain: TRTVAGAVHSAVEESQAAALTAVAGAAAAVGKSVQWSADELCRGKRPALPDPHTAQSPTPNAEIDNALSALQAQAIMSLIRVHDESQSVVLLEVLRRLAMREHALVSKALEALSQLEMLTDDPELLAKIFEIDHLVTRMRRQVESTAVLGGQSLRSVRRPVPVTTALRGAVSEVVQYPRVAVAAGSVGAELGLPGHVGPDLTHLLAELIENACECSDPETRVMVRAQRVPHGLAIEVEDRAIPMHPQTRAQMNHLLKAPHEVDVSGQVRAGQLGLLVAAKIAQSHGLSVLLQENATGGTTVLVVIPARLLVAIPSVEDAGAPPPEGAGTSGRQPQQVAAAPAASGAHQAARPGATGAPTAEAGQSADAPALPTRTRRTEPFRPPHEREQAPVAAATPGLAAAFRNGLQAGGTADCPPAPAEHPTP
B1: the binding result in experiment [2] is recorded as “binds”.
